According to article PMC7911190, “One Step Histological Detection and Staining of the PTEN Tumor Suppressor Protein by a Single Strand DNA”:
Construct, isoform or probe ends are uncertain for at least one entry.

How the values were obtained:
[1] = system: GST-PTEN recombinant protein; experiment: competition with a labelled probe; conditions: 2 mM GST-PTEN as printed blocks staining of endometrium; Fixed tissue sections; 5 uM aptamer in TKT (25 mM Tris-HCl pH 8, 20 mM KCl, 200 mM NaCl, 0.05% Triton X-100, 0.1% DMSO), 100 uM hemin for DNAzyme constructs, BSA; recombinant protein; protein details: GST; label: 5' biotin; folded or branched DNA
[2] = system: PTEN peptide; experiment: competition with a labelled probe; conditions: 5 uM peptide blocks staining of endometrium; Fixed tissue sections; 5 uM aptamer in TKT (25 mM Tris-HCl pH 8, 20 mM KCl, 200 mM NaCl, 0.05% Triton X-100, 0.1% DMSO), 100 uM hemin for DNAzyme constructs, BSA; label: 5' biotin; folded or branched DNA

“CGGAATTCCGAGCGTGGGCGTGGTCATACCGCGCCTATCGAACTCGCCACTCGCGTGCAGCTCTGTGTAGGTACGCCCACGCTCGAG [PTENz7-87-biotin]”: binds [1]; binds [2].
